Primary screen of a compound library

Chains of the proteins cited; added tags and fusions are not shown.
UniProt E9BF75, entry or part of it: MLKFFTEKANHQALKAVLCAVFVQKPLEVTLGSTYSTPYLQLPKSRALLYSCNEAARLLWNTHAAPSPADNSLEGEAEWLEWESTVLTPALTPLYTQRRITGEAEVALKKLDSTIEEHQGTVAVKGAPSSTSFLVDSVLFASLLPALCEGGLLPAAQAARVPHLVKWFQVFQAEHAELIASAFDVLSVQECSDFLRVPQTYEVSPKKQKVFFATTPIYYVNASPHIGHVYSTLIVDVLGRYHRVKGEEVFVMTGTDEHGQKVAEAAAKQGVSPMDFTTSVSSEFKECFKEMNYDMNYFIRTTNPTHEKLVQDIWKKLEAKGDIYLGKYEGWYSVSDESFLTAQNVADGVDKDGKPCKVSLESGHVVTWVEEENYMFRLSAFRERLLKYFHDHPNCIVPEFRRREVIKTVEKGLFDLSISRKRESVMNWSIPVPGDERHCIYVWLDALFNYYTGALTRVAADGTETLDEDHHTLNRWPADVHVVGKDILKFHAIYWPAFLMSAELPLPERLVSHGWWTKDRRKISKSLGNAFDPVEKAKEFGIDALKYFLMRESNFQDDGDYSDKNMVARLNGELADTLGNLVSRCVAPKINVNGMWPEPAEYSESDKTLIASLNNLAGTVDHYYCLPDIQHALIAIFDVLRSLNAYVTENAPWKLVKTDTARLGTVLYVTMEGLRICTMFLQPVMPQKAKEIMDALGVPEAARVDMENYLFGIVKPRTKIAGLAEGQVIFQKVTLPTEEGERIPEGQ

Measurements from “University of Dundee, Small-Polar-MMV Screening Library” (2021), ChEMBL document CHEMBL3988442.

All values are in %. The record does not define 0% and 100%; most values in the screen are far below 50% and negative numbers occur (in some assays of this library far below -100). Compounds were drawn at random from those tested, without regard to their results. A dash means the value is not listed here; it may have been measured.

A: 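Assay on Mycobacterium tuberculosis, filed only as a heat shock assay from Cornell; the read-out is not stated. The concentration is filed as 10 mM, unlikely as a test dose, so the dose is not known. Higher reads as stronger inhibition (inferred: compounds with an IC50 in retests scored well above the rest). Of about 69,000 compounds tested this way, about 930 (1.4%) reached 50% or more in at least one test.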
B: 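Methionyl-tRNA synthetase (putative), Leishmania donovani (UniProt E9BF75). Primary screen of methionyl-tRNA synthetase; the read-out is not stated. The test concentration is not given. The values are filed as inhibition. Size under these conditions: about 68,000 compounds, about 24 of them at 50% or above in at least one test.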
C: 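Whole-cell assay for inhibitors of Mycobacterium tuberculosis growth, labelled Cornell in the record; the read-out is not stated. The concentration is filed as 10 mM, unlikely as a test dose, so the dose is not known. Higher means stronger inhibition (inferred from two other growth screens of the library). Size under these conditions: about 53,000 compounds, about 900 of them at 50% or above in at least one test.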

- O=C(Cc1cccc(F)c1)NCCCNC(=O)c1cccc(O)c1 : A: -8.248%; B: 21.37%; C: -64.06%
- CC1(CCNC(=O)NCc2ccsc2)OCCO1 : A: 8.487%; B: 0.5013%; C: -7.322%
- CCOC(=O)C1(O)CCN(C(=O)Nc2ccc(CC)cc2)CC1 : A: 7.003%; B: 9.887%; C: -12.81%
- CC(C)c1cc(C(=O)NCC2CCCN(C(C)C)C2)n(C)n1 (stereo not shown) : B: 17.72%
- O=C(c1cccnc1)C1CCCN(c2nnc(C3CC3)o2)C1 (stereo not shown) : A: -29.36%; B: 8.791%
- CCN1CCN(C(=O)NCc2cc[nH]n2)CC1 : A: -0.9898%; B: 12.57%; C: 2.585%
- Nc1nc(O)cc(N2CCC(c3cc(Cc4ccccc4)n[nH]3)CC2)n1 : A: 11.89%; B: 17.09%
- Cn1c(CN2CCCC2c2noc(C3CC3)n2)cc(=O)n(C)c1=O (stereo not shown) : A: -3.534%; B: 8.392%
- Cc1cc(C(=O)N2C[C@@H](CN(C)CCN(C)C)[C@@H](CO)C2)nc(C)n1 : A: -172.7%; B: 5.136%
- CC(C(=O)NCc1ccc(N2CCCCC2)nc1)S(C)(=O)=O (stereo not shown) : A: 1.745%; B: 10.74%
- COCCCNC(=O)CN(C)C(C)c1nc(C(C)C)no1 (stereo not shown) : A: 2.384%; B: 11.53%; C: 14.05%
- Cn1ncnc1-c1ccnc(NCc2ccncc2)n1 : A: -13.07%; B: 11%; C: 17%
- Cc1cnn(CC2CCCN2c2ccc(C#N)cn2)c1 (stereo not shown) : A: -2.469%; B: 4.337%; C: -14.52%
- O=C(O)C1CCN(c2ccc(Sc3ccc(Br)cc3)nn2)CC1 : A: -20.8%; B: 11.18%; C: -1.901%
- CCc1cc(N2CCC(Nc3ccc4nnc(C)n4n3)CC2)ncn1 : A: -32.12%; B: 16.25%; C: -42.6%
- N#Cc1ccc(C(=O)N2C[C@@H](CN3CCCC3)C[C@H](CO)C2)cc1 : A: -18.01%; B: 6.452%; C: 27.38%
- CN(C)C(=O)CN1C[C@@H]2OCCN(c3ncc(F)cn3)[C@@H]2C1 : B: 12.18%
- CCCNC(=O)CN1CCOC(c2ccc(Br)cc2)C1 (stereo not shown) : A: 0.5976%; B: 7.246%; C: 19.08%
- Cc1ccc(C(O)CNC(=O)CCCc2ccccn2)o1 (stereo not shown) : A: 8.056%; B: 11.11%; C: -25.04%
- O=C(c1cccs1)N1CCCn2c(nc(CN3CCCC3)cc2=O)C1 : A: -9.023%; B: 11.85%; C: 8.909%
- OC1(CNc2ccccc2)CCNCC1 : A: -11.16%; B: 17.25%; C: -17.82%
- O=C(c1cccnc1N1CCOC(c2ccc(F)cc2)C1)N1CCCC1 (stereo not shown) : A: 1.276%; B: 3.817%; C: 0.3862%
- COc1cccc(-c2nc(C)c(C(=O)NCCC(=O)O)s2)c1 : A: 17.24%; B: 13.64%; C: 5.447%
- Cc1nc(CCNc2ccc(-c3nc(C)c(C)c(=O)[nH]3)cn2)cs1 : A: -3.076%; B: 17.71%; C: -12.49%
- COCCN1C(=O)CC(N2CCN(c3ccc(OC)cc3)CC2)C1=O (stereo not shown) : A: 70.99%; B: 12.39%; C: 55.38%
- COCCCNC(=O)c1nnsc1-c1ccccc1 : A: -20.2%; B: 10.48%; C: -15.69%
- COc1ccc(OC)c(C(C)Nc2ncnc3c2NC(=O)CN3)c1 (stereo not shown) : A: 0.2421%; B: 15.01%; C: 5.828%
- O=C(NCCCOc1cccnc1)c1cn(Cc2ccccc2F)nn1 : A: 6.95%; B: 5.842%; C: 18.08%
- Cc1ccccc1N1CCCN(C(=O)CCc2cccnc2)CC1 : A: 7.414%
- Cc1cc(CN2CCN(C(=O)C3(C#N)CCCCC3)CC2)on1 : A: -23.72%; B: 12.93%; C: 23.29%

Repeated from the top, 4 entries:

| structure | A | B | C |
|---|---|---|---|
| `O=C(Cc1cccc(F)c1)NCCCNC(=O)c1cccc(O)c1` | -8.248% | 21.37% | -64.06% |
| `CC1(CCNC(=O)NCc2ccsc2)OCCO1` | 8.487% | 0.5013% | -7.322% |
| `CCOC(=O)C1(O)CCN(C(=O)Nc2ccc(CC)cc2)CC1` | 7.003% | 9.887% | -12.81% |
| `CC(C)c1cc(C(=O)NCC2CCCN(C(C)C)C2)n(C)n1` (stereo not shown) | - | 17.72% | - |